# Changes are numbered by the printed parent chain. Names may count otherwise. Results are given in words; binding and its absence hold for the method and conditions named. In cells and extracts the contact can be indirect. Some binding calls cover weakened binding; strength is not graded here. For some assays here: Tags and fused reporters may be left off the sequences shown.
# T1: ERH1:Venus-N (Arabidopsis thaliana) (UniProt Q9SH93)
# T1 sequence: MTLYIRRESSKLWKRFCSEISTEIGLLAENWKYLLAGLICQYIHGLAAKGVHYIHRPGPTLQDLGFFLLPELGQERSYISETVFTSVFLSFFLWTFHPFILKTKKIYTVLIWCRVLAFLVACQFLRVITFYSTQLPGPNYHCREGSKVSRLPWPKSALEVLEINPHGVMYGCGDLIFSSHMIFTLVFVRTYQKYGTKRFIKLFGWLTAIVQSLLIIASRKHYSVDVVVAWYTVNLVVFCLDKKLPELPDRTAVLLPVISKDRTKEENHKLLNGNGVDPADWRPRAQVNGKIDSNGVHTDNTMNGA
# T2: δ-COP (BiFC fusion) (Arabidopsis thaliana) (UniProt Q93Y22)
# T2 sequence: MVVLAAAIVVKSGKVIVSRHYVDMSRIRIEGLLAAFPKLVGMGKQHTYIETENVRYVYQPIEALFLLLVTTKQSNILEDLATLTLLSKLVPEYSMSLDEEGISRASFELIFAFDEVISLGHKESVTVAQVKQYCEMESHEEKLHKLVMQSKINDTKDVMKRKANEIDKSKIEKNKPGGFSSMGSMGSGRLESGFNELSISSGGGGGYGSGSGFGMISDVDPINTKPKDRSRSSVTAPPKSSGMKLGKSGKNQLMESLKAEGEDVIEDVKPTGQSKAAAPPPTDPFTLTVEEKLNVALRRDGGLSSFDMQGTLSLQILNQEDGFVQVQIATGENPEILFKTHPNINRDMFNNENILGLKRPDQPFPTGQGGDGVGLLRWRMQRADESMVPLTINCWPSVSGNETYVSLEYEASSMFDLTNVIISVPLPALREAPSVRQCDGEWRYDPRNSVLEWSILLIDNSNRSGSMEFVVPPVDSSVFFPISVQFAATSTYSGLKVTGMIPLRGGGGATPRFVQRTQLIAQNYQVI
# T3: Myc:ERH1 (Arabidopsis thaliana) (UniProt Q9SH93)
# T3 sequence: T1 sequence
# B1: α1-COP:Venus-C (protein, UniProt Q94A40 1-1216)
# chain: MLTKFETKSNRVKGLSFHPKRPWILASLHSGVIQLWDYRMGTLIDRFDEHEGPVRGVHFHNSQPLFVSGGDDYKIKVWNYKNHRCLFTLLGHLDYIRTVQFHHEYPWIVSASDDQTIRIWNWQSRTCVSVLTGHNHYVMCASFHPKEDLVVSASLDQTVRVWDIGALRKKTVSPADDIMRLTQMNSDLFGGVDAIVKYVLEGHDRGVNWAAFHPTLPLIVSGADDRQVKLWRMNETKAWEVDTLRGHMNNVSSVMFHAKQDIIVSNSEDKSIRVWDATKRTGLQTFRREHDRFWILAVHPEMNLLAAGHDSGMIVFKLERERPAFALSGDSLFYAKDRFLRYYEYSTQRDSQVIPIRRPGTPSLNQSPRTLSYSPTENAVLICSDLDGGSYELYIIPKDSVGRSDVVQDAKRGTGGSAVFIARNRFAVLEKSTSQVLVKNLKNEVVKKSPLPIPTDAIFYAGTGNLLCRSEDKVVIFDLQQRLVLGELQTPFVRYVVWSSDMESVALLSKHTIIIASKKLVLQCTLHETIRVKSGAWDDNGVFIYTTLNHIKYCLPNGDSGIIRTLDVPIYITKVSGNTIFCLDRDGKNKAITINATEYIFKLSLLRKRYDHVMSMIKNSQLCGQAMIAYLQQKGFPEVALHFVEDERIRFNLALESGNISVAVASATQINEKDHWYRLGVEALRQGNSGIVEFAYQQTKNFERLSFLYLITGNLDKLSKLMKIAEVKNNVMGQFHNALYLGDVKERVKILENAGHLPLAYITASVHGLNDIAERLATELGDNVPSLPEGKTPSLLMPPTPIMCGGDWPLLRVMKGIFEGGLESADRGGTVDEEDVEGDWGEELDINVDGMENRDIEDILAAAEAGEEENDEEGGWGLEDLVLPPELDTPKASANARSSVFVTPPQGMPVSQSWSQKSSLAAEQAAAGSFDTAMRLLHRQLGIKNFTPLKSMFLDLFNGSHSYLRAFSSCPVVPLAIERGWSESSSPNVRSPPALVYDFSQLDEKLKSGYKATTTGKFTEALRLFLSILHTIPLVVVETRREVDEVKELIVIVKEYVLGLQMELKRREMKDDPVRQQELAAYFTHCNLQTPHLRLALLSAMGVCYKAKNLATASNFARRLLETSPVDSQAKMARQVVQAAERNMTDETKLNYDFRNPFVVCGSTYVPIYRGQKDVSCPYCTARFVPNQEGNICTVCDLAVIGADASGLLCSPSQVR
# B2: GFP:α1-COP (protein, UniProt Q94A40 1-1216)
# chain: B1 chain
# B3: α1-COP^G486D:cVenus (protein, UniProt Q94A40 1-1216)
# chain: B1 chain with G486D
# B4: GFP:α1-COP^G486D (protein, UniProt Q94A40 1-1216)
# chain: B1 chain with G486D
# Legend:
# [1] = target: T1, ERH1:Venus-N (Arabidopsis thaliana); test: split reporter
# [2] = target: T2, δ-COP (BiFC fusion) (Arabidopsis thaliana); test: split reporter
# [3] = target: T3, Myc:ERH1 (Arabidopsis thaliana); test: co-IP
Binder,binding [1],binding [2],binding [3]
B1,binds,binds,–
B2,–,–,binds
B3,no binding,–,–
B4,–,–,no binding

# From publication doi:10.1101/2021.03.22.436362
